Common to all, as to experiment: pull-down; GST pull-down in vitro; GST-tagged PAPC constructs as bait, Myc-tagged β-TrCP detected by Western blot; all proteins expressed in Xenopus embryos and purified for the analyses; both purified
In general terms: In western blotting, separated proteins are transferred to a membrane and probed.

The target of experiment [1] is Cytoplasmic domain of PAPC tagged with GST, phosphorylation-mimic mutant (Xenopus laevis).
Experiment [2] deals with Cytoplasmic domain of PAPC tagged with GST (Xenopus laevis).
For experiment [3], the target named is Cytoplasmic domain of PAPC tagged with GST, non-phosphorylated mutant (Xenopus laevis).

No constants are given. Whether binding was seen depends on the method and setting. For part of these data: Binding calls can cover weak binding; strength is not graded here. Sequences can lack the tags named with a protein.

B1: Myc-tagged β-TrCP (protein, UniProt Q91854 1-518)
chain: MEGFSCSLQPPTASEREDCNRDEPPRKIITEKNTLRQTKLANGTSSMIVPKQRKLSANYEKEKELCVKYFEQWSECDQVEFVEHLISRMCHYQHGHINTYLKPMLQRDFITALPARGLDHIAENILSYLDAKSLCSAELVCKEWYRVTSDGMLWKKLIERMVRTDSLWRGLAERRGWGQYLFKNKPPDGKTPPNSFYRALYPKIIQDIETIESNWRCGRHSLQRIHCRSETSKGVYCLQYDDQKIVSGLRDNTIKIWDKNTLECKRVLMGHTGSVLCLQYDERVIITGSSDSTVRVWDVNTGEMLNTLIHHCEAVLHLRFNNGMMVTCSKDRSIAVWDMASATDITLRRVLVGHRAAVNVVDFDDKYIVSASGDRTIKVWNTSTCEFVRTLNGHKRGIACLQYRDRLVVSGSSDNTIRLWDIECGACLRVLEGHEELVRCIRFDNKRIVSGAYDGKIKVWDLVAALDPRAPAGTLCLRTLVEHSGRVFRLQFDEFQIVSSSHDDTILIWDFLNDPGLA
For B1, the binding entry is “binds” in experiment [1], “binds” in experiment [2] and “no binding” in experiment [3].

Values taken from paper PMC4291225.
